Reference: publication PMC7736794
Numbering of substitutions follows the chain as printed. No constants are given. Whether binding was seen depends on the method and setting. In cells and extracts the contact can be indirect. Some binding calls cover weakened binding; strength is not graded here. For some assays here: Where a sequence is shown, tags or fusion partners need not be part of it. One block for each binder: values may come before it.

Key:
Flag-USP36 wild type = molecular target: T1, Flag-USP36 wild type (UniProt Q9P275); test: co-IP; lysates of HEK293T or USP36 knock-down HEK293T cells transfected with Flag-USP36 constructs (with or without Myc-PrimPol), precipitated with anti-Flag agarose beads, NETN buffer; cells untreated or treated with HU (10 mM, 8 h) or MG132 (50 μM, 3 h)
T1 sequence: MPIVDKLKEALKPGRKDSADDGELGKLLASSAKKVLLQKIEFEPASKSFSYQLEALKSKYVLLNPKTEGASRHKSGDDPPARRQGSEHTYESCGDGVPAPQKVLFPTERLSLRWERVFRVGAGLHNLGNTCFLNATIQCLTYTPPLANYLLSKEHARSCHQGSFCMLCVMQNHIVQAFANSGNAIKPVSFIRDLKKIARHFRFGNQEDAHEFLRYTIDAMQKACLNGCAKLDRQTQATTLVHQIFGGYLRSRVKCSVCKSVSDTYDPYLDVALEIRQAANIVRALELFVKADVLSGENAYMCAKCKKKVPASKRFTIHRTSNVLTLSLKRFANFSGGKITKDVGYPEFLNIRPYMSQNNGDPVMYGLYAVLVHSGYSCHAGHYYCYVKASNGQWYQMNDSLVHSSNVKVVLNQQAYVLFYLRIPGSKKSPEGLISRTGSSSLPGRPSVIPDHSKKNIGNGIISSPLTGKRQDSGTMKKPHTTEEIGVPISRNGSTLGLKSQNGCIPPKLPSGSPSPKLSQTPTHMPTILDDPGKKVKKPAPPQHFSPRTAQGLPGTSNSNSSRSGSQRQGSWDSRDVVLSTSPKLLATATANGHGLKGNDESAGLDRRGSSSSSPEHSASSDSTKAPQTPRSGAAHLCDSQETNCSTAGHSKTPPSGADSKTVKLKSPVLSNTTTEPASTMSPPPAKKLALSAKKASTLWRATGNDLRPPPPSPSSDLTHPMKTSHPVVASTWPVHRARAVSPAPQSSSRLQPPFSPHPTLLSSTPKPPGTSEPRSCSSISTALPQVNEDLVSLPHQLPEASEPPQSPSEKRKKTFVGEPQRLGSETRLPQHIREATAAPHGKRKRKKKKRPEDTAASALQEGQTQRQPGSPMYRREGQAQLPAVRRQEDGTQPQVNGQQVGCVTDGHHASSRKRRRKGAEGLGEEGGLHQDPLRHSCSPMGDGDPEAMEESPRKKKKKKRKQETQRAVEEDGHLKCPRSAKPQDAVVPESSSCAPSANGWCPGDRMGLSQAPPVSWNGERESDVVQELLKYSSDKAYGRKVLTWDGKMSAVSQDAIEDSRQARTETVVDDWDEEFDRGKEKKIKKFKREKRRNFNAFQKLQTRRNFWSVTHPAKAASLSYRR

[1] = molecular target: T2, USP36 (endogenous, HEK293T) (human (endogenous in HEK293T)) (UniProt Q9P275); test: co-IP; HEK293T lysate (NETN buffer, 500 mM NaCl, 0.5% NP-40) precipitated with anti-USP36 antibody or control IgG and agarose beads overnight at 4°C; blotted for PrimPol
T2 sequence: T1 sequence

[2] = molecular target: T3, USP36 (endogenous, OVCAR8) (human (endogenous in OVCAR8)) (UniProt Q9P275); test: proximity ligation; Duolink in situ PLA with USP36 and PrimPol antibodies in fixed OVCAR8 cells (endogenous proteins, or USP36 knock-down cells transfected with USP36 WT or 2KR); untreated or HU (10 mM, 4 h) or UV (4 h)
T3 sequence: T1 sequence

[3] = molecular target: T4, USP36-WT 2KR mutant, transfected in OVCAR8 (UniProt Q9P275); test: as above
T4 sequence: T1 sequence with K329R, K338R

Flag-USP36 1-420 = molecular target: T5, Flag-USP36 1-420 (UniProt Q9P275); test: co-IP; lysates of HEK293T or USP36 knock-down HEK293T cells transfected with Flag-USP36 constructs (with or without Myc-PrimPol), precipitated with anti-Flag agarose beads, NETN buffer; cells untreated or treated with HU (10 mM, 8 h) or MG132 (50 μM, 3 h)
T5 sequence: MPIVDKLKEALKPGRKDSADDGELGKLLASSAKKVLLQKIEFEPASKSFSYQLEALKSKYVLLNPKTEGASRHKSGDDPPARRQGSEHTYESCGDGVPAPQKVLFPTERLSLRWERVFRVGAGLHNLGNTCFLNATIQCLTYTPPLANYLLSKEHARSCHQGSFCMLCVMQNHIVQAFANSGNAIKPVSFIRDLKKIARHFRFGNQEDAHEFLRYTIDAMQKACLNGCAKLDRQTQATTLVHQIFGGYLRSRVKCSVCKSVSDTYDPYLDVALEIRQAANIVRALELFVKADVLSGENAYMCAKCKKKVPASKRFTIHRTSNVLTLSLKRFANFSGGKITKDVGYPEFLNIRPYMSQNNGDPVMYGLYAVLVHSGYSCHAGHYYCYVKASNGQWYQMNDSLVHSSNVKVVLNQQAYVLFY

[4] = molecular target: T6, Flag-USP36-WT-K329R/K338R (2KR) (UniProt Q9P275); test: as above
T6 sequence: T1 sequence with K329R, K338R

Flag-USP36 1-800 = molecular target: T7, Flag-USP36 1-800 (UniProt Q9P275); test: as above
T7 sequence: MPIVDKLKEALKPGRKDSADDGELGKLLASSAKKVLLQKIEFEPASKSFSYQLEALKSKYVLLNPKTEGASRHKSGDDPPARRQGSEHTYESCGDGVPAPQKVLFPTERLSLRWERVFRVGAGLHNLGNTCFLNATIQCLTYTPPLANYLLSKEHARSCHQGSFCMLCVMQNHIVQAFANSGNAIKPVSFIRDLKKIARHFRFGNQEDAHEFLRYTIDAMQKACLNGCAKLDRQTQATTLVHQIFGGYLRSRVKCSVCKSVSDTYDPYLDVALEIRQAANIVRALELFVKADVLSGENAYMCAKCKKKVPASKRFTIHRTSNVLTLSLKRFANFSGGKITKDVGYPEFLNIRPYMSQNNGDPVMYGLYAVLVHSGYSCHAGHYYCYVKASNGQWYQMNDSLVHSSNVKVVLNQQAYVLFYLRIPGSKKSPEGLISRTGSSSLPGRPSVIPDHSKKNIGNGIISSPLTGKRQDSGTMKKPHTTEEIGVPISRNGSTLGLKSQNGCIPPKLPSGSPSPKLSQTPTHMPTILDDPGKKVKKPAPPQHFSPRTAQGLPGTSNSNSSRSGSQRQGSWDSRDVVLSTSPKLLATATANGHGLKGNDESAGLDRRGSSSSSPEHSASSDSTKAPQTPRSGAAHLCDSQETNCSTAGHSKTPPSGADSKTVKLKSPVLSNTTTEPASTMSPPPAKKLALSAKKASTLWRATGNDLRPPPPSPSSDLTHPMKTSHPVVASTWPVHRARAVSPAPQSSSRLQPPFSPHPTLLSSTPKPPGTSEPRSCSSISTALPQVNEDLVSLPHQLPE

binding (Flag-USP36 wild type): binds
binding [1]: binds
B1: PrimPol (endogenous, HEK293T) (enzyme, UniProt Q96LW4 1-560)
chain: MNRKWEAKLKQIEERASHYERKPLSSVYRPRLSKPEEPPSIWRLFHRQAQAFNFVKSCKEDVHVFALECKVGDGQRIYLVTTYAEFWFYYKSRKNLLHCYEVIPENAVCKLYFDLEFNKPANPGADGKKMVALLIEYVCKALQELYGVNCSAEDVLNLDSSTDEKFSRHLIFQLHDVAFKDNIHVGNFLRKILQPALDLLGSEDDDSAPETTGHGFPHFSEAPARQGFSFNKMFTEKATEESWTSNSKKLERLGSAEQSSPDLSFLVVKNNMGEKHLFVDLGVYTRNRNFRLYKSSKIGKRVALEVTEDNKFFPIQSKDVSDEYQYFLSSLVSNVRFSDTLRILTCEPSQNKQKGVGYFNSIGTSVETIEGFQCSPYPEVDHFVLSLVNKDGIKGGIRRWNYFFPEELLVYDICKYRWCENIGRAHKSNNIMILVDLKNEVWYQKCHDPVCKAENFKSDCFPLPAEVCLLFLFKEEEEFTTDEADETRSNETQNPHKPSPSRLSTGASADAVWDNGIDDAYFLEATEDAELAEAAENSLLSYNSEVDEIPDELIIEVLQE

binding [2]: binds
binding [3]: binds
B2: PrimPol (endogenous, OVCAR8) (enzyme, UniProt Q96LW4 1-560)
chain: B1 chain

binding (Flag-USP36 1-420): binds
binding (Flag-USP36 wild type): binds
binding [4]: binds
binding (Flag-USP36 1-800): binds
B3: Myc-PrimPol WT (enzyme, UniProt Q96LW4 1-560)
chain: B1 chain
